Measured values taken from article PMC5840266.

The chains behind the UniProt entries cited, without tags or fusion partners.
UniProt O95714: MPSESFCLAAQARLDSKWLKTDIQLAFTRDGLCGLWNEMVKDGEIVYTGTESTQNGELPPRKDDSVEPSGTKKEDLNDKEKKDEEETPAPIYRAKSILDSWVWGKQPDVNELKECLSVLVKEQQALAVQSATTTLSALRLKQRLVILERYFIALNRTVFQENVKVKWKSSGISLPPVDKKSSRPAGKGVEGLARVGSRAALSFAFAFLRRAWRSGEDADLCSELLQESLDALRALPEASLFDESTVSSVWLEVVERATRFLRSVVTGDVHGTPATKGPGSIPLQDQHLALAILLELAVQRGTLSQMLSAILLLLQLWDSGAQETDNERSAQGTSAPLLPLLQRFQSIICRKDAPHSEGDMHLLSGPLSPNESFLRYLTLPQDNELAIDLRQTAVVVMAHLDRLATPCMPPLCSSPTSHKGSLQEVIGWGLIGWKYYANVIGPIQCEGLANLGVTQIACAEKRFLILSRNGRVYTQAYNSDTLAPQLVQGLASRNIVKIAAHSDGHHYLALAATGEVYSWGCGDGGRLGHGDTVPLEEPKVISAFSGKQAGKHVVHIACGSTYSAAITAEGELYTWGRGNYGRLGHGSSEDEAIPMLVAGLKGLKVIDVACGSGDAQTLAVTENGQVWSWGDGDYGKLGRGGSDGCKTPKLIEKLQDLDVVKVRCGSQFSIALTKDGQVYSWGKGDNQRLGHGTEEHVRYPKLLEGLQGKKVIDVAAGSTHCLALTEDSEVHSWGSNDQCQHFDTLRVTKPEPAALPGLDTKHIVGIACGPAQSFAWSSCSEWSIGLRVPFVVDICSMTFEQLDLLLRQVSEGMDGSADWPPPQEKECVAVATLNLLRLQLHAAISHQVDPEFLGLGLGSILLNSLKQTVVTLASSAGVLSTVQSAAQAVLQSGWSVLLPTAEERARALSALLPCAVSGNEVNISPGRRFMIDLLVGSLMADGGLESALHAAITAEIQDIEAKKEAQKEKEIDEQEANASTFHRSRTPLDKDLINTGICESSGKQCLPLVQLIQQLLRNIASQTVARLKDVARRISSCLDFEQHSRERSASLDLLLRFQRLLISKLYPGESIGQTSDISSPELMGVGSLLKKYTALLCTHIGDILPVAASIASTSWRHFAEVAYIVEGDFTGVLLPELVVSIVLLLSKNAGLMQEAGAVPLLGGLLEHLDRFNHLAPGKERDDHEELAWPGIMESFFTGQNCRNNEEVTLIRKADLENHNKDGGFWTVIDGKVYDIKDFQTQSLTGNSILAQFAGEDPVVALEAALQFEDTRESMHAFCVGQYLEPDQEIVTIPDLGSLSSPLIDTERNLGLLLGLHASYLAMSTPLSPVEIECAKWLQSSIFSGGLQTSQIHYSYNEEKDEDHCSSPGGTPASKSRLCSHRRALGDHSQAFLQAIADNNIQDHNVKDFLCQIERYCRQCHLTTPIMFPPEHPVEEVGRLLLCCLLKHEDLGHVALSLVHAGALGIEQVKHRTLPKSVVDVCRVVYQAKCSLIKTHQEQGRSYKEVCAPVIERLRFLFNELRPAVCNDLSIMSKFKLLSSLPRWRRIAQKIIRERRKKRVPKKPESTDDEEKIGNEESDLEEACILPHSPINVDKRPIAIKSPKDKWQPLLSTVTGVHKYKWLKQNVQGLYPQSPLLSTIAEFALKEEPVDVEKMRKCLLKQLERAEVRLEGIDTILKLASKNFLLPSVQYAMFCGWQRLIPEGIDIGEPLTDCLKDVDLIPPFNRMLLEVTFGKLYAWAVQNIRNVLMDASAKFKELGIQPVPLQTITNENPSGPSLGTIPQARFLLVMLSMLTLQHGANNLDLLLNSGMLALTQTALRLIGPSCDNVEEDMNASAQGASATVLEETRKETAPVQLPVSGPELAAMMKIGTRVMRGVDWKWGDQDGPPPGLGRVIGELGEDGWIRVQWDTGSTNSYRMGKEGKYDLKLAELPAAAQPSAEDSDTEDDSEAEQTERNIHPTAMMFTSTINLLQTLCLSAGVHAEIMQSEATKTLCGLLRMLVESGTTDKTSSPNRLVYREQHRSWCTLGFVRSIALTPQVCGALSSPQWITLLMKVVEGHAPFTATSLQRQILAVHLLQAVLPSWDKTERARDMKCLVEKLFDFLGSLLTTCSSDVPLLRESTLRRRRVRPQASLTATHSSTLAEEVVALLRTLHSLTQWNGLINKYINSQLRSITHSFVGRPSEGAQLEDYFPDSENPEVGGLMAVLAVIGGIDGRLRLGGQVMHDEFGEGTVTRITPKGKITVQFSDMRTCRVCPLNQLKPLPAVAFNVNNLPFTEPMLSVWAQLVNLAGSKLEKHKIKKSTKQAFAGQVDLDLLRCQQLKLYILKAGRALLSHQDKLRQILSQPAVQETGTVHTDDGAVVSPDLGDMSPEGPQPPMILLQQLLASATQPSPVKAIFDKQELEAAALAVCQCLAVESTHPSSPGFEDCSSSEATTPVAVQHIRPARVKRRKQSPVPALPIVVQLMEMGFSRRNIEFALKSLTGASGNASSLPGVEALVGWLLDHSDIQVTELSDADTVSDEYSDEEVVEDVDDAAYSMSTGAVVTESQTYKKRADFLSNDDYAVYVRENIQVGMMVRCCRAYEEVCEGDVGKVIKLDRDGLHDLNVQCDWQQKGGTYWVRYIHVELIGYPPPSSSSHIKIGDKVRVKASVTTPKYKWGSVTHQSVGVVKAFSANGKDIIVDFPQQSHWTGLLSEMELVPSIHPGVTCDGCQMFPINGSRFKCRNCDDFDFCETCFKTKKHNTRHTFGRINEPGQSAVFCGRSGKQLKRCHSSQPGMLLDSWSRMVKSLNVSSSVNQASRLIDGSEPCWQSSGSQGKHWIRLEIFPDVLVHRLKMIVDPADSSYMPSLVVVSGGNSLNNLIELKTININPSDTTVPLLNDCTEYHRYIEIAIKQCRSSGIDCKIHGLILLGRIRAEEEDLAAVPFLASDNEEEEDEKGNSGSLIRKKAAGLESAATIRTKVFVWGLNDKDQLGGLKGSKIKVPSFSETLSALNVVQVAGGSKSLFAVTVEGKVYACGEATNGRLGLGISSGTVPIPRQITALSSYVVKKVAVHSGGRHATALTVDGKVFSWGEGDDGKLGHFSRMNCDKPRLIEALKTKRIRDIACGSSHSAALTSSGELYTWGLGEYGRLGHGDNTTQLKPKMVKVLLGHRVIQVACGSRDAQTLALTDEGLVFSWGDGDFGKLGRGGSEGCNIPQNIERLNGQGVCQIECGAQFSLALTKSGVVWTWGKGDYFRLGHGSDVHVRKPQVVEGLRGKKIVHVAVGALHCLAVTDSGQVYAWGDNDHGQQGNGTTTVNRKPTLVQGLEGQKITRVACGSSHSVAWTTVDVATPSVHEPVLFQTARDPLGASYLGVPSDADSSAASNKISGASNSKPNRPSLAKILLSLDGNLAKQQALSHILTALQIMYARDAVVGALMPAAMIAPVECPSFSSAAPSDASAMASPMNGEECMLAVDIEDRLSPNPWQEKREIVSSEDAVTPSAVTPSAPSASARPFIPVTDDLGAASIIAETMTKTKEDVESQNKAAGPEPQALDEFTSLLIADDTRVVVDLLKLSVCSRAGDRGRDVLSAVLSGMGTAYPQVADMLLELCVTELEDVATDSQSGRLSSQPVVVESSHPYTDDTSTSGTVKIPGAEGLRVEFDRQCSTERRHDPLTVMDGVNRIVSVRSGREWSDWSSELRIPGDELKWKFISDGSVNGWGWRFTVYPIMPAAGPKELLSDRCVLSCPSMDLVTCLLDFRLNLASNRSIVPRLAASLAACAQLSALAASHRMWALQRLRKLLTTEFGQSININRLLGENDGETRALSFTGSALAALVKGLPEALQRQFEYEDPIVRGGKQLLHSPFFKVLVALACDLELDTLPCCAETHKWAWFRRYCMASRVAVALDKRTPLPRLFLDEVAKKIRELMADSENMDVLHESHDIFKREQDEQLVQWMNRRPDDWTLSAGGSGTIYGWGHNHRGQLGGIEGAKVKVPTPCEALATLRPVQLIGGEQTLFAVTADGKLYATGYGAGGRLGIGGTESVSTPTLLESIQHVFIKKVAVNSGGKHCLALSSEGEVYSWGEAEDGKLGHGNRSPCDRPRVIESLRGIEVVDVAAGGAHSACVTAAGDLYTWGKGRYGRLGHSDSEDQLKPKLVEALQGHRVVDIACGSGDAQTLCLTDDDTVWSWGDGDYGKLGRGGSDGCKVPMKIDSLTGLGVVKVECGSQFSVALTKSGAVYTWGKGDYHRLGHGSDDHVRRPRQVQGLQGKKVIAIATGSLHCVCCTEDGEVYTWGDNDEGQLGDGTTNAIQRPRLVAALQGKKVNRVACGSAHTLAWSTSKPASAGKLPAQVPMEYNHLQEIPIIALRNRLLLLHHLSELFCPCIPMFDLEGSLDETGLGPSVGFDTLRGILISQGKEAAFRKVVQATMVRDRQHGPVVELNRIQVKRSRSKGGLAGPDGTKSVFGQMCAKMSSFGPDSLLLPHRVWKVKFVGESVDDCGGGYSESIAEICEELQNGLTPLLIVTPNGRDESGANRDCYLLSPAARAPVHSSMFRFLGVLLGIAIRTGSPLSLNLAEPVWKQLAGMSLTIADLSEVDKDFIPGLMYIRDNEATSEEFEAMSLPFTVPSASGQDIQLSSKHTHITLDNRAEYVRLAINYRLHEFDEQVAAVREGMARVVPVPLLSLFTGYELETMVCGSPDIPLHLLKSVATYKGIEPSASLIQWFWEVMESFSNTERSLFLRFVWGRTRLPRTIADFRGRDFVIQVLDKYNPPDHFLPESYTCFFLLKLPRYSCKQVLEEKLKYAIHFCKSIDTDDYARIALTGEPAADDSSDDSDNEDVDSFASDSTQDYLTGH
UniProt Q9UJW0: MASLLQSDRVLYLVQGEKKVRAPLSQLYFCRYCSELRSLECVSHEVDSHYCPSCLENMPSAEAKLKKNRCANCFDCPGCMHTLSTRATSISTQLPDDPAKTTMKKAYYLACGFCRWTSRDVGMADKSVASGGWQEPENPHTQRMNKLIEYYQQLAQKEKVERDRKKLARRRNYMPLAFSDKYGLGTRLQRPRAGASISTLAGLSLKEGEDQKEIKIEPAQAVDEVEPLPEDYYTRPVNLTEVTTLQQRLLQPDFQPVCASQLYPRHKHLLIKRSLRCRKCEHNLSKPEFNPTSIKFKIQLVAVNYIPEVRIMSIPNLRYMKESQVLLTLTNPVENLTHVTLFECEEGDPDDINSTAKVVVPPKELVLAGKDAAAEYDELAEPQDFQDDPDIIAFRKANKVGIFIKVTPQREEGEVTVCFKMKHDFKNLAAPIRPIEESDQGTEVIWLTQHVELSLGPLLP
UniProt Q9UHI6: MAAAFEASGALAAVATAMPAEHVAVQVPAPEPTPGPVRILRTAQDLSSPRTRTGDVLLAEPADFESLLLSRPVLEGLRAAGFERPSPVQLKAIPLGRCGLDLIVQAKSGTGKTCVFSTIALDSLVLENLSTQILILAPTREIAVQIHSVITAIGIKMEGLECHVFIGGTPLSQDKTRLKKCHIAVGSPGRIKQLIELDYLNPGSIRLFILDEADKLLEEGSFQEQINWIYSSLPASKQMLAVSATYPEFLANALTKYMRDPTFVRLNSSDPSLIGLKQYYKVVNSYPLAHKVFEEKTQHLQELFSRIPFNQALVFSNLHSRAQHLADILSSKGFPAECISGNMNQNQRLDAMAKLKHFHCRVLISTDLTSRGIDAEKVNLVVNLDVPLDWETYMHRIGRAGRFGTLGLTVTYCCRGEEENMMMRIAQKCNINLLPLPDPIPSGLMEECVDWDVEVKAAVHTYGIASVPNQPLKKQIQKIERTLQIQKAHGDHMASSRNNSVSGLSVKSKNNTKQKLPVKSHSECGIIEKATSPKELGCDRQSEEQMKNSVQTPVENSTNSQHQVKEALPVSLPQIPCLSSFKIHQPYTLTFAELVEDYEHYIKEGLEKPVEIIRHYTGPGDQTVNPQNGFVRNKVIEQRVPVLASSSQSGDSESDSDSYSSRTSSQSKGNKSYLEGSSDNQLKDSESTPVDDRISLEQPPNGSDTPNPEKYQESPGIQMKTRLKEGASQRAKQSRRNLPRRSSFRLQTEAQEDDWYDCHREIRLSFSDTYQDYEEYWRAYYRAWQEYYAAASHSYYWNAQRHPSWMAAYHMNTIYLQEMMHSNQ
UniProt P49841: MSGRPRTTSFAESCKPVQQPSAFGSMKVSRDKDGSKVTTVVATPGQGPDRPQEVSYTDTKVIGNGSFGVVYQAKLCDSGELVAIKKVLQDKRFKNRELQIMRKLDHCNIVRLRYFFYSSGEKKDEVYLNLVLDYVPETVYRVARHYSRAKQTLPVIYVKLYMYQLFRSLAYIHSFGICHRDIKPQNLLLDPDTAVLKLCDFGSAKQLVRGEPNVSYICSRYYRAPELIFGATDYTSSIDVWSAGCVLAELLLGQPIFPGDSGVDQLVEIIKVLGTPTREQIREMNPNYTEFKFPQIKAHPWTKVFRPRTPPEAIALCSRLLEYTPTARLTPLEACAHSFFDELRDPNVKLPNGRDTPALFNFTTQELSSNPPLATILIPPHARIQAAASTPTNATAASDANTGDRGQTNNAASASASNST

How the values were obtained:
[1] = target: T1, RNF181 (human (endogenous in H9 hESCs)) (UniProt Q9P0P0); assay: affinity purification with mass spectrometry; endogenous E3 (HERC2, HECTD1, RNF181, KCMF1 or UBR7) immunoprecipitated with its antibody (4 µg, 30 minutes on ice) from 330 µg H9 hESC RIPA lysate (50 mM Tris-HCl pH 6.7, 150 mM NaCl, 1% Triton x-100, 1% sodium deoxycholate, 1 mM EDTA), µMACS Micro Beads; control co-IP with anti-FLAG antibody; label-free LC-MS/MS, FDR < 0.2; no RNase
T1 sequence: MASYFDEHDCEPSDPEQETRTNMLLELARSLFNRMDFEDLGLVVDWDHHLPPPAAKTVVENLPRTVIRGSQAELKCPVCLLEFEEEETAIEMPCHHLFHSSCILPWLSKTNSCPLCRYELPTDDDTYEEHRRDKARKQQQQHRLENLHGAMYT

[2] = target: HERC2 (human (endogenous in H9 hESCs)) (UniProt O95714); assay: affinity purification with mass spectrometry; as a1 for HERC2, but H9 hESC lysate incubated with 125 µl ml^-1 RNase A for one hour on ice prior to immunoprecipitation
[3] = target: HECTD1 (human (endogenous in H9 hESCs)) (UniProt Q9ULT8); assay: affinity purification with mass spectrometry; endogenous E3 (HERC2, HECTD1, RNF181, KCMF1 or UBR7) immunoprecipitated with its antibody (4 µg, 30 minutes on ice) from 330 µg H9 hESC RIPA lysate (50 mM Tris-HCl pH 6.7, 150 mM NaCl, 1% Triton x-100, 1% sodium deoxycholate, 1 mM EDTA), µMACS Micro Beads; control co-IP with anti-FLAG antibody; label-free LC-MS/MS, FDR < 0.2; no RNase
[4] = target: T2, UBR7 (human (endogenous in H9 hESCs)) (UniProt Q8N806); assay: as above
T2 sequence: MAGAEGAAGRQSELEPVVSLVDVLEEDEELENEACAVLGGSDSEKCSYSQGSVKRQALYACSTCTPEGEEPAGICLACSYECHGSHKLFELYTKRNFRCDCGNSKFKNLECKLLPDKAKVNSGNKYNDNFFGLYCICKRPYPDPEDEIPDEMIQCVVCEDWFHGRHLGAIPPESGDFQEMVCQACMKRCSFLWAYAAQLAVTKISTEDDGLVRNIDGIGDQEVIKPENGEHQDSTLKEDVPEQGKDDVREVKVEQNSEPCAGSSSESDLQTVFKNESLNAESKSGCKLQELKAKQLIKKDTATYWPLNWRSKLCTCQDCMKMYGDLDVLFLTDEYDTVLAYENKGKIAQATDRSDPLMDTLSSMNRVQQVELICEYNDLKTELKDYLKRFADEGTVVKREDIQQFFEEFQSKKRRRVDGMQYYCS

[5] = target: HERC2 (human (endogenous in H9 hESCs)) (UniProt O95714); assay: as above
[6] = target: HECTD1 (human (endogenous in H9 hESCs)) (UniProt Q9ULT8); assay: affinity purification with mass spectrometry; co-immunoprecipitation of endogenous HECTD1 from NPCs differentiated from H9 hESCs (n = 3), label-free MS, FDR < 0.2
[7] = target: HECTD1 (human (endogenous in H9 hESCs)) (UniProt Q9ULT8); assay: affinity purification with mass spectrometry; co-immunoprecipitation of endogenous HECTD1 or RNF181 from neurons differentiated from H9 hESCs, label-free MS, FDR < 0.2

- binding [1]: binds
Molecule: ACTR1B (from UniProt P42025 1-376)

- binding [1]: binds
Molecule: DCTN4 (from UniProt Q9UJW0 1-460)

- binding [2]: binds
Molecule: EIF3C (from UniProt Q99613 1-913)

- binding [2]: binds
Molecule: DDX20 (from UniProt Q9UHI6 1-824)

- binding [3]: binds
Molecule: EXOC5 (from UniProt O00471 1-708)

- binding [4]: binds
Molecule: ZSCAN10 (from UniProt Q96SZ4 1-780)

- binding [2]: binds
Molecule: CENPF (from UniProt P49454 1-3114)

- binding [5]: binds
- binding [2]: binds
Molecule: SRGAP2 (from UniProt O75044 1-1071)

- binding [5]: binds
- binding [2]: binds
Molecule: NEURL4 (from UniProt Q96JN8 1-1562)

- binding [5]: no binding
Molecule: LRRK2 (from UniProt Q5S007 1-2527)

- binding [1]: binds
Molecule: PSMD3 (from UniProt O43242 1-534)

- binding [6]: binds
- binding [3]: binds
- binding [7]: binds
Molecule: GSK3B (from UniProt P49841 1-420)

- binding [6]: binds
- binding [4]: binds
- binding [3]: binds
- binding [7]: binds
B1: DLAT (protein, UniProt P10515 87-647)
chain: SLPPHQKVPLPSLSPTMQAGTIARWEKKEGDKINEGDLIAEVETDKATVGFESLEECYMAKILVAEGTRDVPIGAIICITVGKPEDIEAFKNYTLDSSAAPTPQAAPAPTPAATASPPTPSAQAPGSSYPPHMQVLLPALSPTMTMGTVQRWEKKVGEKLSEGDLLAEIETDKATIGFEVQEEGYLAKILVPEGTRDVPLGTPLCIIVEKEADISAFADYRPTEVTDLKPQVPPPTPPPVAAVPPTPQPLAPTPSAPCPATPAGPKGRVFVSPLAKKLAVEKGIDLTQVKGTGPDGRITKKDIDSFVPSKVAPAPAAVVPPTGPGMAPVPTGVFTDIPISNIRRVIAQRLMQSKQTIPHYYLSIDVNMGEVLLVRKELNKILEGRSKISVNDFIIKASALACLKVPEANSSWMDTVIRQNHVVDVSVAVSTPAGLITPIVFNAHIKGVETIANDVVSLATKAREGKLQPHEFQGGTFTISNLGMFGIKNFSAIINPPQACILAIGASEDKLVPADNEKGFDVASMMSVTLSCDHRVVDGAVGAQWLAEFRKYLEKPITMLL

- binding [4]: binds
B2: A2M (protein, UniProt P01023 24-1474)
chain: SVSGKPQYMVLVPSLLHTETTEKGCVLLSYLNETVTVSASLESVRGNRSLFTDLEAENDVLHCVAFAVPKSSSNEEVMFLTVQVKGPTQEFKKRTTVMVKNEDSLVFVQTDKSIYKPGQTVKFRVVSMDENFHPLNELIPLVYIQDPKGNRIAQWQSFQLEGGLKQFSFPLSSEPFQGSYKVVVQKKSGGRTEHPFTVEEFVLPKFEVQVTVPKIITILEEEMNVSVCGLYTYGKPVPGHVTVSICRKYSDASDCHGEDSQAFCEKFSGQLNSHGCFYQQVKTKVFQLKRKEYEMKLHTEAQIQEEGTVVELTGRQSSEITRTITKLSFVKVDSHFRQGIPFFGQVRLVDGKGVPIPNKVIFIRGNEANYYSNATTDEHGLVQFSINTTNVMGTSLTVRVNYKDRSPCYGYQWVSEEHEEAHHTAYLVFSPSKSFVHLEPMSHELPCGHTQTVQAHYILNGGTLLGLKKLSFYYLIMAKGGIVRTGTHGLLVKQEDMKGHFSISIPVKSDIAPVARLLIYAVLPTGDVIGDSAKYDVENCLANKVDLSFSPSQSLPASHAHLRVTAAPQSVCALRAVDQSVLLMKPDAELSASSVYNLLPEKDLTGFPGPLNDQDNEDCINRHNVYINGITYTPVSSTNEKDMYSFLEDMGLKAFTNSKIRKPKMCPQLQQYEMHGPEGLRVGFYESDVMGRGHARLVHVEEPHTETVRKYFPETWIWDLVVVNSAGVAEVGVTVPDTITEWKAGAFCLSEDAGLGISSTASLRAFQPFFVELTMPYSVIRGEAFTLKATVLNYLPKCIRVSVQLEASPAFLAVPVEKEQAPHCICANGRQTVSWAVTPKSLGNVNFTVSAEALESQELCGTEVPSVPEHGRKDTVIKPLLVEPEGLEKETTFNSLLCPSGGEVSEELSLKLPPNVVEESARASVSVLGDILGSAMQNTQNLLQMPYGCGEQNMVLFAPNIYVLDYLNETQQLTPEIKSKAIGYLNTGYQRQLNYKHYDGSYSTFGERYGRNQGNTWLTAFVLKTFAQARAYIFIDEAHITQALIWLSQRQKDNGCFRSSGSLLNNAIKGGVEDEVTLSAYITIALLEIPLTVTHPVVRNALFCLESAWKTAQEGDHGSHVYTKALLAYAFALAGNQDKRKEVLKSLNEEAVKKDNSVHWERPQKPKAPVGHFYEPQAPSAEVEMTSYVLLAYLTAQPAPTSEDLTSATNIVKWITKQQNAQGGFSSTQDTVVALHALSKYGAATFTRTGKAAQVTIQSSGTFSSKFQVDNNNRLLLQQVSLPELPGEYSMKVTGEGCVYLQTSLKYNILPEKEEFPFALGVQTLPQTCDEPKAHTSFQISLSVSYTGSRSASNMAIVDVKMVSGFIPLKPTVKMLERSNHVSRTEVSSNHVLIYLDKVSNQTLSLFFTVLQDVPVRDLKPAIVKVYDYYETDEFAIAEYNAPCSKDLGNA

- binding [5]: binds
- binding [2]: binds
B3: SEC23IP (protein, UniProt Q9Y6Y8 1-1000)
chain: MAERKPNGGSGGASTSSSGTNLLFSSSATEFSFNVPFIPVTQASASPASLLLPGEDSTDVGEEDSFLGQTSIHTSAPQTFSYFSQVSSSSDPFGNIGQSPLTTAATSVGQSGFPKPLTALPFTTGSQDVSNAFSPSISKAQPGAPPSSLMGINSYLPSQPSSLPPSYFGNQPQGIPQPGYNPYRHTPGSSRANPYIAPPQLQQCQTPGPPAHPPPSGPPVQMYQMPPGSLPPVPSSVQSPAQQQVPARPGAPSVQVPSPFLLQNQYEPVQPHWFYCKEVEYKQLWMPFSVFDSLNLEEIYNSVQPDPESVVLGTDGGRYDVYLYDRIRKAAYWEEEPAEVRRCTWFYKGDTDSRFIPYTEEFSEKLEAEYKKAVTTNQWHRRLEFPSGETIVMHNPKVIVQFQPSSVPDEWGTTQDGQTRPRVVKRGIDDNLDEIPDGEMPQVDHLVFVVHGIGPVCDLRFRSIIECVDDFRVVSLKLLRTHFKKSLDDGKVSRVEFLPVHWHSSLGGDATGVDRNIKKITLPSIGRFRHFTNETLLDILFYNSPTYCQTIVEKVGMEINHLHALFMSRNPDFKGGVSVAGHSLGSLILFDILSNQKDLNLSKCPGPLAVANGVVKQLHFQEKQMPEEPKLTLDESYDLVVENKEVLTLQETLEALSLSEYFSTFEKEKIDMESLLMCTVDDLKEMGIPLGPRKKIANFVEHKAAKLKKAASEKKAVAATSTKGQEQSAQKTKDMASLPSESNEPKRKLPVGACVSSVCVNYESFEVGAGQVSVAYNSLDFEPEIFFALGSPIAMFLTIRGVDRIDENYSLPTCKGFFNIYHPLDPVAYRLEPMIVPDLDLKAVLIPHHKGRKRLHLELKESLSRMGSDLKQGFISSLKSAWQTLNEFARAHTSSTQLQEELEKVANQIKEEEEKQVVEAEKVVESPDFSKDEDYLGKVGMLNGGRRIDYVLQEKPIESFNEYLFALQSHLCYWESEDTALLLLKEIYRTMNISPEQPQH

- binding [6]: binds
- binding [3]: binds
- binding [7]: binds
B4: PDHX (protein, UniProt O00330 54-501)
chain: GDPIKILMPSLSPTMEEGNIVKWLKKEGEAVSAGDALCEIETDKAVVTLDASDDGILAKIVVEEGSKNIRLGSLIGLIVEEGEDWKHVEIPKDVGPPPPVSKPSEPRPSPEPQISIPVKKEHIPGTLRFRLSPAARNILEKHSLDASQGTATGPRGIFTKEDALKLVQLKQTGKITESRPTPAPTATPTAPSPLQATAGPSYPRPVIPPVSTPGQPNAVGTFTEIPASNIRRVIAKRLTESKSTVPHAYATADCDLGAVLKVRQDLVKDDIKVSVNDFIIKAAAVTLKQMPDVNVSWDGEGPKQLPFIDISVAVATDKGLLTPIIKDAAAKGIQEIADSVKALSKKARDGKLLPEEYQGGSFSISNLGMFGIDEFTAVINPPQACILAVGRFRPVLKLTEDEEGNAKLQQRQLITVTMSSDSRVVDDELATRFLKSFKANLENPIRLA

These are yes or no findings as the source states them, for the method shown. In cells and extracts the contact can be indirect. A yes stands for co-enrichment or nearness to the bait. Other partners may have been found. For some assays here: No binding means not detected with the bait. One block for each molecule: values may come before it.
